Source: PubChem BioAssay AID1053208 (Peter MacCallum Cancer Centre, 2014)

- Test: 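Find knock-downs that sensitise mouse osteosarcoma cells to doxorubicin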 (primary screen)
- System: mouse osteosarcoma cells, early-passage culture from an engineered mouse model of fibroblastic bone tumour
- Knock-down reagent: siRNA pool against mouse genes, 40 nM
- Timing: about 120 h (48 h before drug, then 72 h with drug)
- Challenge: doxorubicin 100 nM for 72 h, roughly 30-40% inhibitory dose
- Measurement: 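Viability read as ATP luminescence after 72 h of 100 nM doxorubicin or none, duplicate wells averaged, scaled to non-targeting siRNA, then expressed as robust z-scores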
- Scale: viability z-score with doxorubicin: higher = more viable cells under doxorubicin; viability z-score without drug: higher = more viable cells with knock-down alone
- Hit rule: 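Called active if knock-down leaves viability unchanged without drug (z within -2 to 2) but lowers it with doxorubicin (z at or under -2)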
This is one part, drawn at random, of about 17,000 reagents. Of all reagents, 788 (4.7%) were called active. 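Calls rest on z-score classes alone; an extra cut-off of viability at most 70% of control was not applied to them.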 Some reagents were tested in more than one well and are listed for each. Further read-outs or replicates are left out here. No sequences are given here.

Ca9 | combined z-score class: no change with or without drug; viability z-score with doxorubicin: 1.12; viability z-score without drug: 0.17; call: inactive
Ppp4r2 | combined z-score class: high cell count with doxorubicin only; viability z-score with doxorubicin: 2.14; viability z-score without drug: 1.52; call: inactive
Nek6 | combined z-score class: no change with or without drug; viability z-score with doxorubicin: -0.34; viability z-score without drug: -1.18; call: inactive
Nup214 | combined z-score class: low cell count with and without drug; viability z-score with doxorubicin: -3.04; viability z-score without drug: -3.2; call: inactive
Emd | combined z-score class: no change with or without drug; viability z-score with doxorubicin: 0; viability z-score without drug: -0.17; call: inactive
Spr | combined z-score class: no change with or without drug; viability z-score with doxorubicin: 0.34; viability z-score without drug: -0.51; call: inactive
Slit1 | combined z-score class: high cell count without drug only; viability z-score with doxorubicin: 1.12; viability z-score without drug: 2.19; call: inactive
Wnt7a | combined z-score class: no change with or without drug; viability z-score with doxorubicin: 0.22; viability z-score without drug: -1.52; call: inactive

Records listed so far whose target name begins with S or s:
Spr | combined z-score class: no change with or without drug; viability z-score with doxorubicin: 0.34; viability z-score without drug: -0.51; call: inactive
Slit1 | combined z-score class: high cell count without drug only; viability z-score with doxorubicin: 1.12; viability z-score without drug: 2.19; call: inactive

Continued.
Cd3e | combined z-score class: no change with or without drug; viability z-score with doxorubicin: 1.01; viability z-score without drug: -0.34; call: inactive
Cd3e | combined z-score class: no change with or without drug; viability z-score with doxorubicin: 0; viability z-score without drug: -1.01; call: inactive
Or10a5 | combined z-score class: no change with or without drug; viability z-score with doxorubicin: -0.11; viability z-score without drug: 0.17; call: inactive
Cstad | combined z-score class: no change with or without drug; viability z-score with doxorubicin: -1.46; viability z-score without drug: 0; call: inactive
Esyt2 | combined z-score class: no change with or without drug; viability z-score with doxorubicin: -0.22; viability z-score without drug: 0.84; call: inactive
Gsto1 | combined z-score class: no change with or without drug; viability z-score with doxorubicin: 0.67; viability z-score without drug: 0.84; call: inactive
Mybbp1a | combined z-score class: no change with or without drug; viability z-score with doxorubicin: 0.22; viability z-score without drug: 0.17; call: inactive
Adarb1 | combined z-score class: no change with or without drug; viability z-score with doxorubicin: 1.01; viability z-score without drug: 1.18; call: inactive
Mtfmt | combined z-score class: no change with or without drug; viability z-score with doxorubicin: 1.12; viability z-score without drug: 0.51; call: inactive
Gk | combined z-score class: no change with or without drug; viability z-score with doxorubicin: 0.45; viability z-score without drug: 0; call: inactive
Fgf14 | combined z-score class: no change with or without drug; viability z-score with doxorubicin: -1.01; viability z-score without drug: -0.51; call: inactive
